PubChem BioAssay AID1259424 – University of Nebraska Medical Center – 2018
Test: 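Seek colon cancer survival genes behaving like KSR1, using a six-gene signature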 (primary screen). Cells: human HCT116 colon cancer cells. Knock-down reagent: siRNA pool against human genes, 50 nM. Read-out: 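Log2 levels of six mRNAs (branched-DNA multiplex), adjusted by two reference genes and the non-targeting median, then scored against the average KSR1 knockdown pattern as Pearson r and euclidean distance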. Scale: mean correlation with KSR1 profile: higher = expression change more like KSR1 knockdown.
In all, the deposit lists about 14,000 reagents; below is a part drawn at random. 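Higher correlation or smaller distance means closer resemblance to KSR1 loss; control wells, including KSR1 knockdowns, recur on many plates.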 Further read-outs or replicates are left out here. Not stated in the record: the time to read-out.

With knock-down of CDH5 the results were mean correlation with KSR1 profile 0.681.
For LARGE1, the values are mean correlation with KSR1 profile 0.365.
Against EMG1 the deposit lists mean correlation with KSR1 profile 0.0616.
PSMA3 showed mean correlation with KSR1 profile -0.154.
ATXN1 showed mean correlation with KSR1 profile 0.742.
For ABI2 the deposit lists mean correlation with KSR1 profile -0.343.
Silencing of BIN1 came out at: mean correlation with KSR1 profile 0.0781.
After knock-down of CUTALP, the record shows mean correlation with KSR1 profile -0.156.
For ZNF672 the deposit lists mean correlation with KSR1 profile -0.223.
After knock-down of AGRP, the screen gave mean correlation with KSR1 profile -0.751.
Silencing of NDUFB2 resulted in: mean correlation with KSR1 profile -0.277.
ATP5F1C gave mean correlation with KSR1 profile -0.495.
TBC1D9B showed mean correlation with KSR1 profile -0.338.
Against PRR14, the values are mean correlation with KSR1 profile 0.295.
MS4A14 showed mean correlation with KSR1 profile 0.509.
SUGCT scored mean correlation with KSR1 profile 0.608.
With knock-down of MPO, the screen gave mean correlation with KSR1 profile 0.632.
After knock-down of CTAGE1 the results were mean correlation with KSR1 profile -0.408.
PLA2G12A scored mean correlation with KSR1 profile 0.68.
STAT5A gave mean correlation with KSR1 profile 0.468.
Knock-down of GTF2A1L resulted in: mean correlation with KSR1 profile 0.607.
After knock-down of IL17RA, the screen gave mean correlation with KSR1 profile 0.546.
Silencing of AJAP1 resulted in: mean correlation with KSR1 profile -0.0912.
Silencing of MEX3C gave: mean correlation with KSR1 profile 0.0808.
Depletion of PVR came out at: mean correlation with KSR1 profile -0.713.
C2CD5 gave mean correlation with KSR1 profile -0.167.
Against TACC2, the values are mean correlation with KSR1 profile 0.0321.
After knock-down of TAX1BP1, the screen gave mean correlation with KSR1 profile 0.789.
Silencing of RAD18 gave: mean correlation with KSR1 profile -0.653.
Silencing of ASPHD2 resulted in: mean correlation with KSR1 profile 0.44.
After knock-down of CEBPA the results were mean correlation with KSR1 profile 0.109.
After knock-down of EAPP, the screen gave mean correlation with KSR1 profile 0.145.
Depletion of BAAT came out at: mean correlation with KSR1 profile 0.37.
With knock-down of GRIK5, the record shows mean correlation with KSR1 profile -0.507.
For GTPBP1, the values are mean correlation with KSR1 profile 0.26.
Silencing of GSDMD gave: mean correlation with KSR1 profile 0.153.

Reprinted from the listing for reference:
EAPP: mean correlation with KSR1 profile = 0.145
BAAT: mean correlation with KSR1 profile = 0.37
GRIK5: mean correlation with KSR1 profile = -0.507
GTPBP1: mean correlation with KSR1 profile = 0.26
GSDMD: mean correlation with KSR1 profile = 0.153
